Measured values: the supplement of paper PMC10011410
Values are raw readings; no control value is given beside them.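 Each value averages three technical replicates run on separate plates. Reagent-free control wells on every plate corrected for the cells' own fluorescence, and DMSO-treated wells served as vehicle controls. No active or hit threshold is defined for these live-cell readings.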

How the values were obtained:
[1] = tested on: U-2 OS; assay: AUC of Cytotox red (membrane-compromised) object count (AUC (object count x time)); higher = more apoptotic or dead cells
Protocol: (§1)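 Live-cell Incucyte imaging of U-2 OS cells with Caspase-3/7 Green and Cytotox Red reagents. Compounds were tested mostly at 5, 10 and 20 uM, and cells were imaged every 4 h for up to 60 h. Value is the area under the curve of positive object counts over time, per channel: green = caspase 3/7, red = membrane-compromised, overlap = both.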

[2] = tested on: U-2 OS; assay: AUC of caspase 3/7-positive object count (AUC (object count x time)); higher = more apoptotic or dead cells
Protocol: as §1

SMILES	AUC of Cytotox red ([1]; 5 µM)	AUC of Cytotox red ([1]; 10 µM)	AUC of Cytotox red ([1]; 20 µM)	AUC of caspase 3/7-positive object count ([2]; 5 µM)	AUC of caspase 3/7-positive object count ([2]; 10 µM)	AUC of caspase 3/7-positive object count ([2]; 20 µM)	AUC of Cytotox red ([1]; 40 µM)	AUC of Cytotox red ([1]; 80 µM)	AUC of caspase 3/7-positive object count ([2]; 40 µM)	AUC of caspase 3/7-positive object count ([2]; 80 µM)	AUC of Cytotox red ([1]; 1.25 µM)	AUC of caspase 3/7-positive object count ([2]; 1.25 µM)
CC1=C2C(=CO[C@H](C)[C@H]2C)C(=O)C(C(=O)O)=C1O	39.3	43.2	31.9	34.5	31	18.7	–	–	–	–	–	–
C[C@@H]1C[C@@H]([C@H](O)CC2CC(=O)NC(=O)C2)C(=O)[C@@H](C)C1	97.3	131	193	56.3	95.9	207	–	–	–	–	–	–
CCCCCCCc1ccc(CCc2cccc(O)c2C(=O)O)cc1	43.5	35.3	398	33.6	14.3	49.1	662	925	59.2	84.2	–	–
C=CC(=O)Nc1cc(Nc2nccc(-c3cn(C)c4ccccc34)n2)c(OC)cc1N(C)CCN(C)C	70.4	131	1020	108	207	377	–	–	–	–	–	–
CC(Cc1ccc(O)c(O)c1)C(C)Cc1ccc(O)c(O)c1 (stereo not given)	26.8	29.8	33	30.4	43.2	41.1	231	510	340	1450	–	–
CC1(C)CCC2=C(O1)c1ccccc1C(=O)C2=O	59.7	643	578	100	610	415	–	–	–	–	–	–
C#CC[C@H](c1nc2cc(Cl)ccc2c(=O)n1Nc1ccccc1)N(CCCN)C(=O)c1cccc(Cl)c1F	217	1350	1650	219	634	433	–	–	–	–	–	–
O=C1CCC(=O)N1c1ccc(O)cc1	42.1	263	53.8	45.7	240	56.7	–	–	–	–	–	–
Oc1cccc(O)c1O	35.3	15	-0.336	36.1	14.2	35.6	–	–	–	–	–	–
CC[C@@H]1/C=C/C=C/C[C@H](C)[C@@H](O)[C@](C)(O)C(=O)[C@H](C)[C@@H](O)[C@H](C)C(=O)[C@H](C)[C@@H](O)[C@H](C)/C=C/C(=O)O[C@H]2[C@@H](C)[C@@H](CC1)O[C@@]1(CC[C@@H](C)[C@@H](C[C@H](C)O)O1)[C@@H]2C	60.5	54.2	505	39.9	43.9	526	–	–	–	–	–	–
ClC1=CC=C(C2=CSC(N/N=C3CCCC/3)=N2)C=C1	–	–	–	–	–	–	15	8.14	34.3	39.7	–	–
CC(C)(N=NC(C)(C)C(=N)N)C(=N)N.Cl.Cl	35.5	41.6	42.7	29	31.8	30.8	–	–	–	–	–	–
CCOc1cc2ncc(C#N)c(Nc3ccc(OCc4ccccn4)c(Cl)c3)c2cc1NC(=O)/C=C/CN(C)C	51.2	74.1	1070	53.5	105	1120	–	–	–	–	–	–
c1ccc(-c2noc(NC3CCCC3)n2)cc1	41.8	57.9	42.3	34.3	39.9	32.9	–	–	–	–	–	–
O=[N+]([O-])c1cc(Br)c2nsnc2c1Sc1ncnc2nc[nH]c12	348	804	1310	792	1160	1430	–	–	–	–	–	–
O=c1cc(N2CCOCC2)oc2c(-c3ccccc3)cccc12	47.6	72.2	69.6	33.2	71.9	18.6	–	–	–	–	–	–
Cc1cnc(CNC(=O)c2c(=O)c3ccc(N4CCCN(C)CC4)nc3n3c2sc2ccccc23)cn1	94.3	128	80.3	75	139	104	–	–	–	–	–	–
C[C@H]1CCC/C=C/[C@@H]2C[C@H](O)C[C@H]2[C@H](O)/C=C/C(=O)O1	319	365	430	523	533	590	–	–	–	–	–	–
CCN(CCO)CCCOc1ccc2c(Nc3cc(CC(=O)Nc4cccc(F)c4)[nH]n3)ncnc2c1	75.5	54.6	52.8	115	98.3	86.9	–	–	–	–	–	–
CC[C@@]1(O)C(=O)OCc2c1cc1n(c2=O)Cc2cc3ccccc3nc2-1	597	–	751	534	–	691	–	–	–	–	356	289
C/C1=C/C(=O)O[C@@H]2C[C@@H](CC[C@H](C)/C=C\CC1)O[C@@](O)([C@@H]1CSC(=O)N1)C2	283	358	487	269	389	596	–	–	–	–	–	–
O=C(O)C1=CC(=C(c2ccc(O)c(C(=O)O)c2)c2ccc(O)c(C(=O)O)c2)C=CC1=O	27.5	14	3.71	67.8	55.9	28.3	–	–	–	–	–	–
COc1cc([C@@H]2c3cc4c(cc3[C@@H](O[C@@H]3O[C@@H]5CO[C@@H](C)O[C@H]5[C@H](O)[C@H]3O)[C@H]3COC(=O)[C@H]23)OCO4)cc(OC)c1O	85.9	104	326	130	143	476	–	–	–	–	–	–
CN(N=O)C(=O)N[C@@H]1[C@@H](O)[C@H](O)[C@@H](CO)O[C@@H]1O	40.4	36.3	60.6	18.9	15.3	27.7	–	–	–	–	–	–
Nc1c[n+](N2CCOCC2)no1.[Cl-]	39.4	42.2	33	36.9	27.1	27.3	–	–	–	–	–	–

SMILES	AUC of Cytotox red ([1]; 5 µM)	AUC of Cytotox red ([1]; 10 µM)	AUC of Cytotox red ([1]; 20 µM)	AUC of caspase 3/7-positive object count ([2]; 5 µM)	AUC of caspase 3/7-positive object count ([2]; 10 µM)	AUC of caspase 3/7-positive object count ([2]; 20 µM)	AUC of Cytotox red ([1]; 40 µM)	AUC of Cytotox red ([1]; 80 µM)	AUC of caspase 3/7-positive object count ([2]; 40 µM)	AUC of caspase 3/7-positive object count ([2]; 80 µM)	AUC of Cytotox red ([1]; 1.25 µM)	AUC of caspase 3/7-positive object count ([2]; 1.25 µM)
O=c1c2ccccc2[se]n1-c1ccccc1	41.3	532	2830	68.9	342	859	–	–	–	–	–	–
Cc1[nH]c2ccccc2c1CCNCc1ccc(/C=C/C(=O)NO)cc1	981	1300	1490	914	1000	1020	–	–	–	–	–	–
CNC(=O)Nc1ccc2c(c1)[C@@]1(CC2)OC(=O)N(CC(=O)N(Cc2ccc(F)cc2)[C@@H](C)C(F)(F)F)C1=O	33.5	24.5	28.9	49.8	41	35.6	–	–	–	–	–	–
CCC(=O)CCCCC[C@@H]1NC(=O)[C@H]2CCCCN2C(=O)[C@H]([C@@H](C)CC)NC(=O)[C@H](Cc2cn(OC)c3ccccc23)NC1=O	932	867	541	1100	1210	1150	–	–	–	–	–	–
COC(=O)[C@@]12OC[C@]34[C@H]([C@@H](O)[C@@H]1O)[C@@]1(C)CC(=O)C(O)=C(C)[C@@H]1C[C@H]3OC(=O)[C@H](OC(=O)CC(C)C)[C@@H]24	668	954	1220	904	994	1190	–	–	–	–	–	–
CC1(C)CC[C@]2(C(=O)n3ccnc3)CC[C@]3(C)[C@H](C(=O)C=C4[C@@]5(C)C=C(C#N)C(=O)C(C)(C)[C@@H]5CC[C@]43C)[C@@H]2C1	149	355	934	112	311	632	–	–	–	–	–	–
CCCCCOc1ccc(/C=C\c2cccc(O)c2C(=O)O)cc1	34.3	48.2	59.3	17.5	39.9	43.8	454	94.4	55.7	48.7	–	–
CC(C)=C[C@@H]1CO[C@]23C[C@]4(CO2)[C@H](CC[C@@H]2[C@@]5(C)CC[C@H](O[C@@H]6OC[C@H](O)[C@H](O[C@@H]7O[C@H](CO)[C@@H](O)[C@H](O)[C@H]7O)[C@H]6O[C@@H]6O[C@@H](CO)[C@H](O)[C@H]6O)C(C)(C)[C@@H]5CC[C@]24C)[C@H]3[C@@]1(C)O	323	1420	1650	203	129	175	–	–	–	–	–	–
O=S1(=O)CCc2ccccc21	37.4	40.8	27.5	50	59.5	60.2	–	–	–	–	–	–
Nc1ccn([C@@H]2O[C@H](CO)[C@@H](O)C2(F)F)c(=O)n1	35.8	47.4	35.1	43	64.4	66.5	–	–	–	–	–	–
COc1ccc(/C(Cl)=C(\C=O)c2ccc(OC)cc2)cc1	81.2	74	277	97.9	81.8	326	–	–	–	–	–	–
Nc1ncn([C@H]2C[C@H](O)[C@@H](CO)O2)c(=O)n1	68.4	54.2	56.7	36.4	22.9	31.1	–	–	–	–	–	–
O=C1C(Cl)=C(NCCN2CCOCC2)C(=O)c2ncccc21	419	474	600	546	567	634	–	–	–	–	–	–
COc1cc(=O)oc(/C=C/C=C/C=C/C(C)=C/[C@]2(C)O[C@H](C)[C@](C)(O)[C@H]2O)c1C	38.8	71.2	67.4	20.1	59.1	39.3	–	–	–	–	–	–
CCCC1(c2ccccc2)NC(=O)N(CC(=O)N(C)Cc2c(F)cccc2Cl)C1=O (stereo not given)	39	44.5	41.6	46.2	38.3	43.9	–	–	–	–	–	–
Cc1cc(-c2ccccc2)cc(C(=O)NNS(=O)(=O)c2ccccc2)c1F	32.1	32.3	30.6	55.7	47.5	48.2	–	–	–	–	–	–
CNC(=O)Nc1ccc2c(c1)CC[C@@]21OC(=O)N(CC(=O)N(Cc2ccc(F)cc2)[C@@H](C)C(F)(F)F)C1=O	31.5	33	42	43.2	54.3	60.4	–	–	–	–	–	–
C[C@@H]1O[C@@H](O[C@H]2[C@H](O[C@H]3CC[C@@]4(C)[C@@H](CC[C@]5(C)[C@@H]4CC=C4[C@@H]6CC(C)(C)CC[C@]6(C(=O)O[C@@H]6O[C@H](CO[C@@H]7O[C@H](CO)[C@@H](O[C@@H]8O[C@@H](C)[C@H](O)[C@@H](O)[C@H]8O)[C@H](O)[C@H]7O)[C@@H](O)[C@H](O)[C@H]6O)CC[C@]45C)[C@]3(C)CO)OC[C@H](O)[C@@H]2O)[C@H](O)[C@H](O)[C@H]1O	41.1	41.5	31.7	39.9	50.2	38.4	–	–	–	–	–	–
CC(=O)O[C@H]1C(=O)[C@@]2(C)[C@H]([C@H](OC(=O)c3ccccc3)[C@]3(O)C[C@H](OC(=O)[C@H](O)[C@@H](NC(=O)c4ccccc4)c4ccccc4)C(C)=C1C3(C)C)[C@]1(OC(C)=O)CO[C@@H]1C[C@@H]2O	409	–	291	361	–	217	–	–	–	–	495	417
CC1(C)[C@@H](O[C@H]2O[C@H](C(=O)O)[C@@H](O)[C@H](O)[C@H]2O[C@@H]2O[C@H](C(=O)O)[C@@H](O)[C@H](O)[C@H]2O)CC[C@]2(C)[C@H]3C(=O)C=C4[C@@H]5C[C@@](C)(C(=O)O)CC[C@]5(C)CC[C@@]4(C)[C@]3(C)CC[C@@H]12.N	24.8	27.5	16.2	22.2	24.3	7.7	–	–	–	–	–	–
O=C1CC(Nc2ccccc2)C(=O)N1Cc1ccccc1 (stereo not given)	42.1	37	35	44.2	34.6	29.2	–	–	–	–	–	–
C[C@H]1O[C@@H](O[C@H]2CC[C@@]3(C)[C@@H](CC[C@]4(C)[C@@H]3C=C[C@]35OC[C@@]6(CCC(C)(C)C[C@H]63)[C@@H](O)C[C@]54C)[C@]2(C)CO)[C@H](O)[C@@H](O[C@@H]2O[C@H](CO)[C@@H](O)[C@H](O)[C@H]2O)[C@H]1O	999	2050	1250	159	123	138	–	–	–	–	–	–
O=C(O)CCCc1ccc(N(CCCl)CCCl)cc1	59.2	55	158	42.7	33.6	106	–	–	–	–	–	–
Cc1cc(NC(=O)c2cccc(NC(=O)/C=C/CN(C)C)c2)ccc1Nc1nccc(-c2cccnc2)n1	43.9	83.5	425	48.5	130	621	–	–	–	–	–	–
CC(C)[C@H](C(=O)Nc1ccc(C(=O)NO)cc1)c1ccccc1	603	540	119	873	909	877	–	–	–	–	–	–

Rewritten in markdown: entries from further up.

| SMILES | AUC of Cytotox red ([1]; 5 µM) | AUC of Cytotox red ([1]; 10 µM) | AUC of Cytotox red ([1]; 20 µM) | AUC of caspase 3/7-positive object count ([2]; 5 µM) | AUC of caspase 3/7-positive object count ([2]; 10 µM) | AUC of caspase 3/7-positive object count ([2]; 20 µM) | AUC of Cytotox red ([1]; 40 µM) | AUC of Cytotox red ([1]; 80 µM) | AUC of caspase 3/7-positive object count ([2]; 40 µM) | AUC of caspase 3/7-positive object count ([2]; 80 µM) | AUC of Cytotox red ([1]; 1.25 µM) | AUC of caspase 3/7-positive object count ([2]; 1.25 µM) |
| --- | --- | --- | --- | --- | --- | --- | --- | --- | --- | --- | --- | --- |
| Nc1ccn([C@@H]2O[C@H](CO)[C@@H](O)C2(F)F)c(=O)n1 | 35.8 | 47.4 | 35.1 | 43 | 64.4 | 66.5 | – | – | – | – | – | – |
| COc1ccc(/C(Cl)=C(\C=O)c2ccc(OC)cc2)cc1 | 81.2 | 74 | 277 | 97.9 | 81.8 | 326 | – | – | – | – | – | – |
| Nc1ncn([C@H]2C[C@H](O)[C@@H](CO)O2)c(=O)n1 | 68.4 | 54.2 | 56.7 | 36.4 | 22.9 | 31.1 | – | – | – | – | – | – |
